Assay results as given in article PMC8165255.
These are yes or no findings as the source states them, for the method shown. Binding seen in cells or lysates may run through a third protein. Some binding calls cover weakened binding; strength is not graded here.

Sequences of proteins named here, by UniProt entry; tags and fusion partners are left off.
UniProt P67809: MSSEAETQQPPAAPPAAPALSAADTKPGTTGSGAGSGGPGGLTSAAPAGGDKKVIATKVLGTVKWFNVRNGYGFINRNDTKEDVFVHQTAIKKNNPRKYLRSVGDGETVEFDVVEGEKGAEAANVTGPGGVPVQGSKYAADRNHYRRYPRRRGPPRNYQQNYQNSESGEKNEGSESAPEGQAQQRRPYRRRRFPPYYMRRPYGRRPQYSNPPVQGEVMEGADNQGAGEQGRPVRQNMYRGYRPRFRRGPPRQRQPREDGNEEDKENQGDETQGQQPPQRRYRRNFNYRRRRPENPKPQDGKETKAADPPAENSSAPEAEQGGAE
UniProt O14746: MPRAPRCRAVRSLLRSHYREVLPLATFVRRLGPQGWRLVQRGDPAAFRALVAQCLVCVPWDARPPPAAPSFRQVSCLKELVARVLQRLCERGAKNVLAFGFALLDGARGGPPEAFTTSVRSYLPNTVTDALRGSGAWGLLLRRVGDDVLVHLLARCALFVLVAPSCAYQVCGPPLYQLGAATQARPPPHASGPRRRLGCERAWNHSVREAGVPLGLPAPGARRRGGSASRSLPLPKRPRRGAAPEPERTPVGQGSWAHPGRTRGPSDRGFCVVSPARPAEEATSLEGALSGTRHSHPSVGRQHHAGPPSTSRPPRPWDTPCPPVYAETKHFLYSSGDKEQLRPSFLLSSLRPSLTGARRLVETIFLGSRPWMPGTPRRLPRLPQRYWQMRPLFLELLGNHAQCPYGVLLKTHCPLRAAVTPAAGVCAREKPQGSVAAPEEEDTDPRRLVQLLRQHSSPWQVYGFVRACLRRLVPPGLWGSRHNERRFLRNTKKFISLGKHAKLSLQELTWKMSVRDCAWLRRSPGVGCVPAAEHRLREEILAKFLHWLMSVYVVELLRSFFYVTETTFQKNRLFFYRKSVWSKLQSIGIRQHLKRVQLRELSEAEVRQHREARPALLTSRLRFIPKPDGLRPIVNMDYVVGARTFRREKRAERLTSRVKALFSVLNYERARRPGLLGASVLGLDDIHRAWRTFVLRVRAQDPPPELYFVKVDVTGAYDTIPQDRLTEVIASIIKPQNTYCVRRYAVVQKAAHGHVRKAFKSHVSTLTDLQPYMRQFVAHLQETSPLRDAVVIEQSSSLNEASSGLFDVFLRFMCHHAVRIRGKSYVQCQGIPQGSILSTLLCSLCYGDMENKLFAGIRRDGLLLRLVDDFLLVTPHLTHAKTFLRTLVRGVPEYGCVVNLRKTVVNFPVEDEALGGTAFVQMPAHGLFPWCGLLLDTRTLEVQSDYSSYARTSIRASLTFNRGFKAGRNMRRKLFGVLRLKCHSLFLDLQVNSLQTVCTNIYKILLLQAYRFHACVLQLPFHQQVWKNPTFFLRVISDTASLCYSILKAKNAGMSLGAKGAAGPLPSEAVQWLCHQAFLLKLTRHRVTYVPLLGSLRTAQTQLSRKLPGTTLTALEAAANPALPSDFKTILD

Experiments:
[1] = target: YBX1 (human (endogenous in HCT116)) (UniProt P67809); assay: co-IP; HCT116 cell lysates, separate IP with hTERT and YBX1 antibody and protein A/G beads (Co-IP kit, Active Motif), detected by western blotting
[2] = target: Human telomerase reverse transcriptase (human (endogenous in HCT116)) (UniProt O14746); assay: as above

binding [1]	binding [2]	Substance
binds		Human telomerase reverse transcriptase (from UniProt O14746 1-1132)
	binds	YBX1 (from UniProt P67809 1-324)
